Data as given in PubChem BioAssay AID1671195 (Yale University, 2021)
Purpose: 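Knockdowns that increase or decrease uptake of fluorescent LDL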 (primary screen). Cells: human Huh7 hepatoma cells. Reagent: siRNA pool against human genes, 18 nM. Timing: about 2 to 2.5 days of knockdown, then 8 h LDL uptake. Challenge: DiI-labelled LDL at 30 µg/ml for 8 h, in lipoprotein-deficient serum medium. Detection: 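Per-cell DiI-LDL intensity by automated imaging; well means scaled to the plate median and given as a robust z-score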. Direction: robust z-score: higher = more LDL uptake after knockdown. Rule for the call: 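a gene counts as active if at least two replicate z-scores exceed ±2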.
This is an unselected part of about 22,000 reagents. Of all reagents, about 1,510 (6.9%) got an active call. 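Active includes knockdowns raising or lowering LDL uptake; positive z-scores mean more uptake, negative mean less.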

no.	Gene	robust z-score, replicate 1	robust z-score, replicate 2	robust z-score, replicate 3	call
1	SOX8	-0.974	-0.388	-0.589	inactive
2	HHIPL1	-0.527	-0.521	-0.614	inactive
3	STAT6	2.44	2.01	2.48	active
4	KLHL30-AS1	-0.624	-0.678	-0.714	inactive
5	CCND2	0.0117	-0.061	0.0896	inactive
6	POGLUT3	-0.807	-0.474	-0.849	inactive
7	TIMM17B	1.49	0.305	1.75	inactive
8	ITGA3	0.00423	-0.862	0.335	inactive
9	ABCB5	-0.507	0.244	-0.647	inactive
10	SPTA1	-1.41	-2.17	-0.954	inactive
11	CNGB3	1.4	2.24	2.7	active
12	GP5	-0.16	0.115	0.435	inactive
13	OPA1	-0.932	-0.259	-0.758	inactive
14	PCLAF	1.07	-0.157	0.482	inactive
15	CUEDC1	0.803	0.827	0.624	inactive
16	SORD	0.0394	-0.954	-0.237	inactive
17	TTC36	-0.357	0.137	-0.338	inactive
18	TSLIG3B	3.83	4.28	4.02	active
19	DEDD2	0.651	0.14	0.965	inactive
20	ATP6V1H	1.14	0.907	0.64	inactive
21	CXCR4	-1.81	-0.926	-1.26	inactive
22	TAF4	0.745	-0.0459	-0.106	inactive
23	ITGB3BP	-1.32	-0.962	-1.07	inactive
24	LOC441382 (retired record)	1.31	0.978	0.654	inactive
25	HSPB7	-0.279	-0.406	-0.18	inactive
26	RRAS2	1.3	0.273	0.0565	inactive
27	MOB2	0.083	0.864	0.591	inactive
28	OR2J1	-0.218	0.335	-0.917	inactive
29	FAM3D	0.163	0.101	0.426	inactive
30	IQCF2	0.0226	-0.476	-0.314	inactive
31	HMGN2	1.69	1.78	2.05	inactive
32	PLCH2	1.47	0.36	-0.0483	inactive
33	SLC23A3	0.493	0.0138	0.0247	inactive
34	MAP3K20	0.0618	-0.669	-0.408	inactive
35	SIVA1	-0.497	0.301	-0.772	inactive
36	C17orf58	-1.66	-1.43	-1.87	inactive
37	UBL4A	-0.0334	0.366	0.38	inactive
38	ICOS	0.328	-0.381	0.552	inactive
39	MYBBP1A	0.182	-0.635	-0.674	inactive
40	SF3A1	-1.47	-1.38	-1.15	inactive
41	LCP2	0.608	0.41	1.17	inactive
42	UPP2	-2.42	-2.58	-2.27	active
43	PLIN4	0.718	-0.328	-0.0569	inactive
44	PDAP1P3	0.0475	-0.281	0.261	inactive
45	PGPEP1L	-0.355	-0.754	0.496	inactive
46	LOC441618 (retired record)	-0.836	-0.928	-0.714	inactive
47	NOL3	1.68	1.22	0.658	inactive
48	TOE1	1.09	0.615	0.485	inactive
49	LOC400600 (retired record)	-0.513	-0.386	-0.669	inactive
50	SH3TC1	0.349	0.139	1.49	inactive
51	EPM2AIP1	0.138	-0.759	-0.993	inactive
52	FAM169A-AS1	-0.0935	-0.157	0.0774	inactive
53	GLE1	0.323	-0.308	1.15	inactive
54	SELENOP	0.225	-0.497	-1.14	inactive
55	ID1	-0.393	0.138	-0.348	inactive
56	BCL2L12	-0.492	-0.248	0.248	inactive
57	PANX1	-1.31	-0.53	-0.881	inactive
58	LOC645733	0.271	0.333	0.00624	inactive
59	SMAD4	-0.744	-1.24	-1.48	inactive
60	KLHL20	3.22	1.28	1.76	inactive
61	LOC107984784	1.3	2.04	2.2	active
62	LOC388204 (retired record)	1.55	1.33	2.46	inactive
63	TRA2A	-0.533	-0.787	-0.783	inactive
64	PRF1	-1.77	0.29	-1.45	inactive
65	DOC2B	-0.8	-0.49	-1.03	inactive
66	CEPT1	0.905	0.655	1.32	inactive
67	TXLNB	-0.245	-1.43	-1.01	inactive
68	MKRN1	-0.121	-0.313	0.0891	inactive
69	KLRC1	0.552	0.28	1.27	inactive
70	SERP1	-0.719	0.351	-1.7	inactive
71	MEF2D	0.252	0.0145	-0.989	inactive
72	S1PR4	-0.996	-0.214	-1.4	inactive
73	CEP20	-1.41	-1.64	-1.32	inactive
74	RABGEF1	-1.83	-1.03	-2.19	inactive
75	MYO15B	1.81	2.3	0.436	inactive
76	ZNF724	0.479	0.204	0.148	inactive
77	MTHFD2P1	-0.617	-0.497	-0.446	inactive
78	CFAP418	0.0523	0.0686	0.161	inactive
79	ARF4P3	-1.45	-0.963	-1.05	inactive
80	RAD51D	-0.491	-1.21	-0.525	inactive
81	GALNT3	0.387	-0.0702	0.234	inactive
82	EIF4A1P6	-0.729	-0.745	-0.729	inactive
83	TNNI3K	1.57	1.43	2.66	inactive
84	TXNL4B	0.103	-0.498	-0.184	inactive
85	RPL12P17	-2.64	-2.46	-2.37	active
86	LONRF2	0.765	-0.767	-0.547	inactive
87	TRPV2	-0.861	-1.04	-0.323	inactive

Limited to “robust z-score, replicate 3”, for 5 of the entries above:
PLCH2: -0.0483
SLC23A3: 0.0247
MAP3K20: -0.408
SIVA1: -0.772
C17orf58: -1.87
